Measurements as given in paper PMC8019017.

By UniProt entry, the sequences of proteins in these tests, tags left out. Where a name states a change or a piece, a line headed by the entry shows the natural chain unless it says otherwise.
UniProt Q14703: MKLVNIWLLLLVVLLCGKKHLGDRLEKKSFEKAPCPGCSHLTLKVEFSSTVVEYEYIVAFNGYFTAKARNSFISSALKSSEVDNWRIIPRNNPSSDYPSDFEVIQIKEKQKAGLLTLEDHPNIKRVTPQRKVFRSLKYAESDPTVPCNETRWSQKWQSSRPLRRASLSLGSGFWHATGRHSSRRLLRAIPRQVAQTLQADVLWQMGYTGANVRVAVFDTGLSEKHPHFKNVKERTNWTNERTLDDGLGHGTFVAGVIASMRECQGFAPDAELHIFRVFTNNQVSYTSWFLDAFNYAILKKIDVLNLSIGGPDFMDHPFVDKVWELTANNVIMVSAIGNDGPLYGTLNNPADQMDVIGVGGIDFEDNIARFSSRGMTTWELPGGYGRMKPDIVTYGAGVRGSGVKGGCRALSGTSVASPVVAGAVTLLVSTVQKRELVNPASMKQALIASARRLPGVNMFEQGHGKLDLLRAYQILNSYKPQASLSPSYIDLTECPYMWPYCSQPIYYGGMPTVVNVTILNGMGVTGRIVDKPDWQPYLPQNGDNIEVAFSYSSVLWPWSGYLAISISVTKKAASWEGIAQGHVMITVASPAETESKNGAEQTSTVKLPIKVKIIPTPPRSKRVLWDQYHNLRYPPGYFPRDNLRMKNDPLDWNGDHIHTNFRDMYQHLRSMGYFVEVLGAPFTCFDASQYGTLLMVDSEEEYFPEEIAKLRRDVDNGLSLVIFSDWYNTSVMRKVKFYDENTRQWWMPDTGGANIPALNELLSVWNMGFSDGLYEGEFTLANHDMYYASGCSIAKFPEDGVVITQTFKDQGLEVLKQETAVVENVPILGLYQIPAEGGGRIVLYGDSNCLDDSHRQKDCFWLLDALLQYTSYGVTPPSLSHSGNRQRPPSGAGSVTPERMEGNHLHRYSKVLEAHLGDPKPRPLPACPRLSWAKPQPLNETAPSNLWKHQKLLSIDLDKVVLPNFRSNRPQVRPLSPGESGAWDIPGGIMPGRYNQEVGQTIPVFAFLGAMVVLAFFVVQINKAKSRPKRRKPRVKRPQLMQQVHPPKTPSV

Biological target: T1, partner of site-1 protease (POST1) with a 3×Flag tag (human) (UniProt Q9H741)
T1 sequence: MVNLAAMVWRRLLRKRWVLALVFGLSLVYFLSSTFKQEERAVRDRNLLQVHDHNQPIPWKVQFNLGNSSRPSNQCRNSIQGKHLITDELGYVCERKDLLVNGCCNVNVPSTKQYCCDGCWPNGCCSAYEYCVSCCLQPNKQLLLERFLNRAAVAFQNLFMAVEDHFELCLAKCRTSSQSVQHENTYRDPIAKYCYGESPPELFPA
Experiment: affinity purification with mass spectrometry; lysates of HeLa/POST1-3×Flag cells in NP40 buffer (0.5% NP40 in PBS, 5 mmol/L EDTA), pre-cleared with protein A/G beads, anti-Flag beads 4 h at 4 °C, eluted with 0.1 mg/mL 3×Flag peptides, LC-MS; three independent experiments; control cells without POST1-3×Flag

binding: binds
Substance: site-1 protease (S1P), endogenous (from UniProt Q14703) (enzyme)

These are yes or no findings as the source states them, for the method shown. Binding seen in cells or lysates may run through a third protein. A yes stands for co-enrichment or nearness to the bait. Other partners may have been found. Where a sequence is shown, tags or fusion partners need not be part of it.
